Assay results reported in US20250163138A1 (Alexion, published 2025).
Results are given in words; binding and its absence hold for the method and conditions named. Some entries that bind do so weakly or less than the wild type.

Amino acid sequences for entries named in this document (tags omitted). Residues count along the entry.
UniProt P02768, residues 25-609: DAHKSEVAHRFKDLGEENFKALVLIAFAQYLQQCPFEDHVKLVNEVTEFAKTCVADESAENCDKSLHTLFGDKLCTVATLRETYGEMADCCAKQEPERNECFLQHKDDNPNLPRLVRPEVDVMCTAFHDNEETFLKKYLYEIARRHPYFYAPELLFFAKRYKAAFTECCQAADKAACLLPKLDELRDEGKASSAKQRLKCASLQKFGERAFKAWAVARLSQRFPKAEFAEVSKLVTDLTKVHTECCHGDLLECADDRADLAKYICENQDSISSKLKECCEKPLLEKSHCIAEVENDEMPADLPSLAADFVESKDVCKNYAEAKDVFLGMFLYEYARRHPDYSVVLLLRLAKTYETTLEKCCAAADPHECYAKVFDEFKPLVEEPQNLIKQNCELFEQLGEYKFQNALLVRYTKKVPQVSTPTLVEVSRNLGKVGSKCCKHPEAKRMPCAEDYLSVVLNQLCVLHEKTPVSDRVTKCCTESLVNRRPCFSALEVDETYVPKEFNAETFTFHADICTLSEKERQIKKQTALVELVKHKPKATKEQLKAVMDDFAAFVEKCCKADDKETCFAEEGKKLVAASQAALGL
UniProt P01031, residues 19-1676: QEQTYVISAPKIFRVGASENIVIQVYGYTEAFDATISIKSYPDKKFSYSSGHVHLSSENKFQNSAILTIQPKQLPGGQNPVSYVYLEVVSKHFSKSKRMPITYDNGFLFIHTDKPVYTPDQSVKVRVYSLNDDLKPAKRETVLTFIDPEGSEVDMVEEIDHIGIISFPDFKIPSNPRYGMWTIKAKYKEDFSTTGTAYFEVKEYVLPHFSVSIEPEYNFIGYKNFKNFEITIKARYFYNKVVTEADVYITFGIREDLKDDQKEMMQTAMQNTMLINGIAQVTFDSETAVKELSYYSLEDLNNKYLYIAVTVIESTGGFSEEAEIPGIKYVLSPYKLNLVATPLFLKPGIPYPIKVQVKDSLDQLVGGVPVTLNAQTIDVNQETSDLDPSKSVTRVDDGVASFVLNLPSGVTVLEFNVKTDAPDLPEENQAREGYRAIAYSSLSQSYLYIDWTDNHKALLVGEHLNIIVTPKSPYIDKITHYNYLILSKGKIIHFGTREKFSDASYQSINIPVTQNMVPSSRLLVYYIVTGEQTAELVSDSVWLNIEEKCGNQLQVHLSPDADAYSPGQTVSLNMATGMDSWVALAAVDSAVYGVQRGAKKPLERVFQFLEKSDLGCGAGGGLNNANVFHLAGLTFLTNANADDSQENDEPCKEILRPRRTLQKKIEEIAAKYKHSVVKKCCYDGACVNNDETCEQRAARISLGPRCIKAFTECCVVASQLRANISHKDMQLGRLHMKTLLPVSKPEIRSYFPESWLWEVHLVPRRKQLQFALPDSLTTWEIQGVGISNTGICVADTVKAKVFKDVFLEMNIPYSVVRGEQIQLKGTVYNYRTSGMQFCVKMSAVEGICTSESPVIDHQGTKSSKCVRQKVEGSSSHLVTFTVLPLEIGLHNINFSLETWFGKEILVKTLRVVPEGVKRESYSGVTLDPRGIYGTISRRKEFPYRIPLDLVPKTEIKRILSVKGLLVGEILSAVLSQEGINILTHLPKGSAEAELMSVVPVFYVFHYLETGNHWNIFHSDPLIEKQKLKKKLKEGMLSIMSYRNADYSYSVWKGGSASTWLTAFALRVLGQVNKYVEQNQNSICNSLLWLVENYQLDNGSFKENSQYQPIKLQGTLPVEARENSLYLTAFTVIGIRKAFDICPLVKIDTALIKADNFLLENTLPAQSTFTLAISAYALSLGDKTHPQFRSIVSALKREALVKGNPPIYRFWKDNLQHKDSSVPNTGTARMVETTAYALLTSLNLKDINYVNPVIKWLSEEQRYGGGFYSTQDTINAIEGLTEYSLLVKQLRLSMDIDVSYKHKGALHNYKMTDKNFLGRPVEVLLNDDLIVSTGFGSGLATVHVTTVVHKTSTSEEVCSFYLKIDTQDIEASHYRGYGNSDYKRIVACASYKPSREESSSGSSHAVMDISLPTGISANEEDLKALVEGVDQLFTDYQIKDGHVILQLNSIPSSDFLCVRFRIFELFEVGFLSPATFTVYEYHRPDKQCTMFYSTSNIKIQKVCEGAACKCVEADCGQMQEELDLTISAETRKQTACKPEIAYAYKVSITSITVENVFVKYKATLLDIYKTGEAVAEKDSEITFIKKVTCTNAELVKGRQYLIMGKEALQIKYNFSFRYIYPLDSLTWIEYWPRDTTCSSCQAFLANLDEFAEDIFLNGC

Columns and labels:
[1] = molecular target: T1, human serum albumin (human, UniProt P02768 25-609); experiment: SPR (Biacore 3000), biotin-hC5 on CAP chip, pH 7.4
T1 construct: also called HSA; human albumin

[2] = molecular target: T2, human complement protein C5 (human, UniProt P01031 19-1676); experiment: SPR (Biacore 3000), biotin-hC5 on CAP chip, pH 7.4
T2 construct: Native C5 is a two-chain protein made from one precursor; also called hC5; human C5

[3] = molecular target: T1, human serum albumin; experiment: sandwich: biotin-hC5 on CAP chip, fusion, then albumin; pH 7.4
[4] = molecular target: T2, human complement protein C5; experiment: as above
[5] = molecular target: T2, human complement protein C5; experiment: BLI, VHH-His on anti-penta-His tips, 50 nM C5
[6] = molecular target: cynomolgus monkey (cyno) complement protein C5 (cynomolgus monkey); experiment: BLI, VHH-His on anti-penta-His tips, 50 nM C5

| Binder | binding [1] | binding [2] | binding [3] | binding [4] | binding [5] | binding [6] |
| --- | --- | --- | --- | --- | --- | --- |
| TPP-3219 (bispecific antibody) EVQLVESGGGLVKPGGSLRLSCAASGRPVSNYAAAWFRQAPGKEREFVSAINWQKTATYADSVKGRFTISRDNAKNSLYLQMNSLRAEDTAVYYCAAVFRVVAPKTQYDYDYWGQGTLVTVSSGSTSGKSSEGKGEVQLVESGGGLVQPGGSLRLSCAASGRAHSDYAMAWFRQAPGQEREFVAGIGWSGGDTLYADSVRGRFTNSRDNSKNTLYLQMNSLRAEDTAVYYCAARQGQYIYSSMRSDSYDYWGQGTLVTVSS | binds | binds | binds | binds |  |  |
| TPP-3225 (bispecific antibody) EVQLVESGGGLVKPGGSLRLSCAASGRPVSNYAAAWFRQAPGKEREFVSAINWQKTATYADSVKGRFTISRDNAKNSLYLQMNSLRAEDTAVYYCAAVFRVVAPKTQYDYDYWGQGTLVTVSSGGGESGGGGSEVQLVESGGGLVQPGGSLRLSCAASGRAHSDYAMAWFRQAPGQEREFVAGIGWSGGDTLYADSVRGRFTNSRDNSKNTLYLQMNSLRAEDTAVYYCAARQGQYIYSSMRSDSYDYWGQGTLVTVSS | binds | binds | binds | binds |  |  |
| TPP-3218 (bispecific antibody) EVQLVESGGGLVKPGGSLRLSCAASGRPVSNYAAAWFRQAPGKEREFVSAINWQKTATYADSVKGRFTISRDNAKNSLYLQMNSLRAEDTAVYYCAAVFRVVAPKTQYDYDYWGQGTLVTVSSPAPAPGGGGSEVQLVESGGGLVQPGGSLRLSCAASGRAHSDYAMAWFRQAPGQEREFVAGIGWSGGDTLYADSVRGRFTNSRDNSKNTLYLQMNSLRAEDTAVYYCAARQGQYIYSSMRSDSYDYWGQGTLVTVSS | binds | binds | binds | binds |  |  |
| TPP-3224 (bispecific antibody) EVQLVESGGGLVKPGGSLRLSCAASGRPVSNYAAAWFRQAPGKEREFVSAINWQKTATYADSVKGRFTISRDNAKNSLYLQMNSLRAEDTAVYYCAAVFRVVAPKTQYDYDYWGQGTLVTVSSGGGASGGGGSEVQLVESGGGLVQPGGSLRLSCAASGRAHSDYAMAWFRQAPGQEREFVAGIGWSGGDTLYADSVRGRFTNSRDNSKNTLYLQMNSLRAEDTAVYYCAARQGQYIYSSMRSDSYDYWGQGTLVTVSS | binds | binds | binds | binds |  |  |
| TPP-3223 (bispecific antibody) EVQLVESGGGLVKPGGSLRLSCAASGRPVSNYAAAWFRQAPGKEREFVSAINWQKTATYADSVKGRFTISRDNAKNSLYLQMNSLRAEDTAVYYCAAVFRVVAPKTQYDYDYWGQGTLVTVSSGGGDSGGGGSEVQLVESGGGLVQPGGSLRLSCAASGRAHSDYAMAWFRQAPGQEREFVAGIGWSGGDTLYADSVRGRFTNSRDNSKNTLYLQMNSLRAEDTAVYYCAARQGQYIYSSMRSDSYDYWGQGTLVTVSS | binds | binds | binds | binds |  |  |
| TPP-3221 (bispecific antibody) EVQLVESGGGLVKPGGSLRLSCAASGRPVSNYAAAWFRQAPGKEREFVSAINWQKTATYADSVKGRFTISRDNAKNSLYLQMNSLRAEDTAVYYCAAVFRVVAPKTQYDYDYWGQGTLVTVSSGGGESGGGESEVQLVESGGGLVQPGGSLRLSCAASGRAHSDYAMAWFRQAPGQEREFVAGIGWSGGDTLYADSVRGRFTNSRDNSKNTLYLQMNSLRAEDTAVYYCAARQGQYIYSSMRSDSYDYWGQGTLVTVSS | binds | binds | binds | binds |  |  |
| LCP0155 (VHH, not shown: small tags and cut ends) VHH: EVQLVESGGGLVQAGGSLRLSCAASGVTFSNYGMAWFRQAPEKEREFVARISSNGRRTEYADGVSGRFTISRDNAKNTVYLQMNGLKPEDTAVYYCARAAGPSGFHEQSIYDDWGQGTQVTVSS |  |  |  |  | binds | binds |
| LCP0295 (VHH, not shown: small tags and cut ends) VHH: EVQLVESGGGLVQAGGSLRLSCAVSGRSISTYVAGWFRQGPGKEREFVALISRGGGDIQYSDSVKGRFTISRDNAKNAVYLQMNSLKPADTAVYYCSLDASFGSRLVSRWDYWGQGTQVTVSS |  |  |  |  | binds | binds |
| TPP-3215 (bispecific antibody) EVQLVESGGGLVKPGGSLRLSCAASGRPVSNYAAAWFRQAPGKEREFVSAINWQKTATYADSVKGRFTISRDNAKNSLYLQMNSLRAEDTAVYYCAAVFRVVAPKTQYDYDYWGQGTLVTVSSEAAAKEAAAKEAAAKEVQLVESGGGLVQPGGSLRLSCAASGRAHSDYAMAWFRQAPGQEREFVAGIGWSGGDTLYADSVRGRFTNSRDNSKNTLYLQMNSLRAEDTAVYYCAARQGQYIYSSMRSDSYDYWGQGTLVTVSS | binds | binds | binds | binds |  |  |
| TPP-3214 (bispecific antibody) EVQLVESGGGLVKPGGSLRLSCAASGRPVSNYAAAWFRQAPGKEREFVSAINWQKTATYADSVKGRFTISRDNAKNSLYLQMNSLRAEDTAVYYCAAVFRVVAPKTQYDYDYWGQGTLVTVSSGGGGSEVQLVESGGGLVQPGGSLRLSCAASGRAHSDYAMAWFRQAPGQEREFVAGIGWSGGDTLYADSVRGRFTNSRDNSKNTLYLQMNSLRAEDTAVYYCAARQGQYIYSSMRSDSYDYWGQGTLVTVSS | binds | binds | binds | binds |  |  |
| TPP-3216 (bispecific antibody) EVQLVESGGGLVKPGGSLRLSCAASGRPVSNYAAAWFRQAPGKEREFVSAINWQKTATYADSVKGRFTISRDNAKNSLYLQMNSLRAEDTAVYYCAAVFRVVAPKTQYDYDYWGQGTLVTVSSPAPAPEVQLVESGGGLVQPGGSLRLSCAASGRAHSDYAMAWFRQAPGQEREFVAGIGWSGGDTLYADSVRGRFTNSRDNSKNTLYLQMNSLRAEDTAVYYCAARQGQYIYSSMRSDSYDYWGQGTLVTVSS | binds | binds | binds | binds |  |  |

The next lines start with the values.

| binding [1] | binding [2] | binding [3] | binding [4] | binding [5] | binding [6] | Binder |
| --- | --- | --- | --- | --- | --- | --- |
| binds | binds | binds | binds |  |  | TPP-3217 (bispecific antibody) EVQLVESGGGLVKPGGSLRLSCAASGRPVSNYAAAWFRQAPGKEREFVSAINWQKTATYADSVKGRFTISRDNAKNSLYLQMNSLRAEDTAVYYCAAVFRVVAPKTQYDYDYWGQGTLVTVSSGGGGSPAPAPEVQLVESGGGLVQPGGSLRLSCAASGRAHSDYAMAWFRQAPGQEREFVAGIGWSGGDTLYADSVRGRFTNSRDNSKNTLYLQMNSLRAEDTAVYYCAARQGQYIYSSMRSDSYDYWGQGTLVTVSS |
| binds | binds | binds | binds |  |  | TPP-3220 (bispecific antibody) EVQLVESGGGLVKPGGSLRLSCAASGRPVSNYAAAWFRQAPGKEREFVSAINWQKTATYADSVKGRFTISRDNAKNSLYLQMNSLRAEDTAVYYCAAVFRVVAPKTQYDYDYWGQGTLVTVSSGGGDSGGGDSEVQLVESGGGLVQPGGSLRLSCAASGRAHSDYAMAWFRQAPGQEREFVAGIGWSGGDTLYADSVRGRFTNSRDNSKNTLYLQMNSLRAEDTAVYYCAARQGQYIYSSMRSDSYDYWGQGTLVTVSS |
| binds | binds | binds | binds |  |  | TPP-3222 (bispecific antibody) EVQLVESGGGLVKPGGSLRLSCAASGRPVSNYAAAWFRQAPGKEREFVSAINWQKTATYADSVKGRFTISRDNAKNSLYLQMNSLRAEDTAVYYCAAVFRVVAPKTQYDYDYWGQGTLVTVSSGGGGSGGGGSEVQLVESGGGLVQPGGSLRLSCAASGRAHSDYAMAWFRQAPGQEREFVAGIGWSGGDTLYADSVRGRFTNSRDNSKNTLYLQMNSLRAEDTAVYYCAARQGQYIYSSMRSDSYDYWGQGTLVTVSS |
|  |  |  |  | binds | binds | LCP0297 (VHH, not shown: small tags and cut ends) VHH: EVQLVESGGGLVQAGGSLRLSCAGSGFTSDDYAIAWFRQAPGKEREGVSCIGSGDGTTYYADSVKGRFIISSENAKKTVYLQMNSLKPEDTGIYYCAADLYPPADYALDHTWYDYWGQGTQVTVSS |
|  |  |  |  | binds | binds | LCP0154 (VHH, not shown: small tags and cut ends) VHH: EVQLVESGGGLVQPGGSLRLSCAASGFTLDDYAIGWFRQAPGKEREGVSCISSSDGSTYYGDSVKGRFTISRDNAKNTMYLQMNSLKPEDTAVYYCATGTPLSSYYGSCLDYDMAYWGQGTQVTVSS |
| binds | binds | binds | binds |  |  | TPP-3213 (bispecific antibody) EVQLVESGGGLVKPGGSLRLSCAASGRPVSNYAAAWFRQAPGKEREFVSAINWQKTATYADSVKGRFTISRDNAKNSLYLQMNSLRAEDTAVYYCAAVFRVVAPKTQYDYDYWGQGTLVTVSSEVQLVESGGGLVQPGGSLRLSCAASGRAHSDYAMAWFRQAPGQEREFVAGIGWSGGDTLYADSVRGRFTNSRDNSKNTLYLQMNSLRAEDTAVYYCAARQGQYIYSSMRSDSYDYWGQGTLVTVSS |
